Screen size: about 220,000 compounds; about 910 (0.41%) were called active. The shares of active, inactive and inconclusive entries below differ from those in the screen.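 The calls were made as follows: active = primary inhibition above the hit cutoff, then over 50% inhibition at one or more dose response concentrations (cut at about 23% in these data, passing the limit was not always enough); inconclusive = conflicting primary data, or primary hits not chosen for dose response; inactive = low primary inhibition, or under 50% at every dose.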
Biological target: Aminopeptidase N (Plasmodium falciparum (isolate 3D7)) (UniProt O96935)
Assay: P. falciparum M1AAP inhibitors, biochemical, fluorogenic H-Leu-NHMec substrate, 1536-well (AID 1445);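 also: plate controls were DMSO full reaction for no effect and no enzyme background for full effect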
Conditions: recombinant M1AAP, H-Leu-NHMec fluorogenic kinetic assay; at 30 µM, hits give high values unless noted

Protein sequences, listed by entry. Tags and fused reporters are not part of them. Lines headed by an entry give the natural chain unless they say otherwise; changes in a name come on top.
UniProt O96935: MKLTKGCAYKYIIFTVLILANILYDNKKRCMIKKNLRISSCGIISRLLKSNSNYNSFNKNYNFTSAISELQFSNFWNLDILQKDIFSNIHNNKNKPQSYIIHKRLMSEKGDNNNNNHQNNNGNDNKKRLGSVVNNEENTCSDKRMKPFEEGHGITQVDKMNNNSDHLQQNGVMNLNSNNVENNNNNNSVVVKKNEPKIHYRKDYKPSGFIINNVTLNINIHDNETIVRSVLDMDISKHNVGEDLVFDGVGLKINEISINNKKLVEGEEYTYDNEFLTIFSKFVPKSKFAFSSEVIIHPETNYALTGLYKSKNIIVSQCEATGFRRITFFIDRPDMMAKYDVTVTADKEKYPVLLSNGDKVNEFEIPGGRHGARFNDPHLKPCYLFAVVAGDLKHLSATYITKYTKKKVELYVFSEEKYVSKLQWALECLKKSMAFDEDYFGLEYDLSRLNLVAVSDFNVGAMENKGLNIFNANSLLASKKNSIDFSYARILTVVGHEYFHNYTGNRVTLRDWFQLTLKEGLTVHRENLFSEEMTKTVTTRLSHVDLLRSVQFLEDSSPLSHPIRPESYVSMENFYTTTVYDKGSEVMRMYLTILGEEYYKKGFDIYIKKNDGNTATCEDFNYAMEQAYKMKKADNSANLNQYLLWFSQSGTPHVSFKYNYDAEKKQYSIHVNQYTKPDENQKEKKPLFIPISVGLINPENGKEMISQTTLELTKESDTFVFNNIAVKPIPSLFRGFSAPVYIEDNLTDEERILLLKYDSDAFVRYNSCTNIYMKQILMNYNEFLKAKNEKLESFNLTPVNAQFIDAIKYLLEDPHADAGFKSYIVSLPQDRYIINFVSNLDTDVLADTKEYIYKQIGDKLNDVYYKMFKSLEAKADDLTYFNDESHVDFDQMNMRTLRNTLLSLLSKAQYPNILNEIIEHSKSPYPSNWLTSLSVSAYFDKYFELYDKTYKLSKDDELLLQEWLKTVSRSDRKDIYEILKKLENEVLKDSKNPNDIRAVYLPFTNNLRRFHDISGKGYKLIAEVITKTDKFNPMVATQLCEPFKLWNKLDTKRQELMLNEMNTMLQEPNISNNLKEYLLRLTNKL

SMILES | inhibition
Cn1nc(C(F)(F)F)c2cc(C(=O)Nc3ccc(F)cc3F)sc21 | inconclusive: 24.5%
COc1ccccc1NC(=O)c1ccc(-n2cncn2)nc1 | inactive: 18.8%
COc1cccc(/C=C2\SC(=S)N(NC(=O)c3ccncc3)C2=O)c1 | inconclusive: 24.6%
COc1cccc(C(=O)N/N=C(/c2ccccc2)c2ccccn2)c1 | inconclusive: 26.6%
Cc1ccc(-n2c(-c3cc(-c4ccco4)[nH]n3)n[nH]c2=S)c(Br)c1 | inconclusive: 25.2%
Cc1cc(=O)oc2c(CN(C)Cc3ccccc3)c(O)ccc12 | inconclusive: 43.8%
CC(=O)c1c(C)oc2ccc(NS(=O)(=O)c3ccc(O)c(C(=O)O)c3)cc12 | inconclusive: 24.4%
CCOC(=O)N1CCN(c2c(NCc3ccccc3OC)c(=O)c2=O)CC1 | inactive: 1.73%
O=C(O)CCN1C(=O)/C(=C/c2cn(-c3ccccc3)nc2-c2cccs2)SC1=S | inconclusive: 27.9%
Cc1cc(O)c(C=O)c2c1C(=O)Oc1c(CO)c(O)c3c(c1O2)C(O)OC3=O (stereo unspecified) | inconclusive: 26.7%
O=C(NC1CCCCC1)NC1CC2CCC(C1)N2C(=S)NCc1ccco1 (stereo unspecified) | inactive: 19.9%
O=C(NCc1ccccn1)C(=O)Nc1nc(-c2ccccc2)cs1 | inconclusive: 23.6%
OCCNC1=NCCN1 | inconclusive: 36.7%
C=CCn1c(COc2ccccc2)nnc1SC(C)C(=O)N/N=C/c1cc(Cl)ccc1O (stereo unspecified) | active: 46.5%
CCNS(=O)(=O)c1ccc(NC(=O)c2ccccc2SCCOC)cc1 | inconclusive: 23.8%
Cc1nn(-c2ccccc2)c(Cl)c1/C=C1/C(=N)N2N=C(C(C)C)SC2=NC1=O | inconclusive: 26.1%
Cc1ccc(-n2c(C)cc(/C=N/Nc3ccc([N+](=O)[O-])cn3)c2C)cc1 | inconclusive: 24.7%
COc1ccccc1Nc1ccc(S(=O)(=O)N2CCCCC2)cc1[N+](=O)[O-] | inconclusive: 23.8%
O=C(CSCc1ccc([N+](=O)[O-])cc1)Nc1cccc(C(=O)Nc2ccccc2C(=O)O)c1 | inconclusive: 23.4%

Some of the entries so far, tab-delimited:
SMILES	inhibition
O=C(NC1CCCCC1)NC1CC2CCC(C1)N2C(=S)NCc1ccco1 (stereo unspecified)	inactive: 19.9%
O=C(NCc1ccccn1)C(=O)Nc1nc(-c2ccccc2)cs1	inconclusive: 23.6%

Additional results follow:

SMILES | inhibition
CC(=O)c1ccc(N2CCN(C(=O)c3cc(-c4ccc5c(c4)OCO5)nc4ccccc34)CC2)cc1 | inconclusive: 0.27%
O=c1oc2c(O)c(O)cc3c(=O)oc4c(O)c(O)cc1c4c23 | inconclusive: 26.4%
Nc1cccc(CCc2nc3cc4ccccc4cc3[nH]2)c1 | inconclusive: 26%
C1CCN(c2nc3nonc3nc2NCC2CCOCC2)CC1 | inactive: 7.54%
C[N+]1=C2CCCCCN2C(O)(c2ccccc2)C1 (stereo unspecified) | inconclusive: 28.3%
CCCCC(CC)CNC(=O)C1CCCN(S(=O)(=O)c2cnc[nH]2)C1 (stereo unspecified) | active: 24.2%
CCN(CC)CCCNC(=O)C1CCN(C(=O)c2cc3sccc3n2Cc2ccc(F)cc2)CC1 | inconclusive: 31.9%
Cc1ccc(/C=N/N=C2\SCC(=O)N2CC2CC2)cc1 | inactive: 3.09%
C[n+]1c(/C=C/c2ccc3c(c2)OCO3)ccc2ccccc21 | inconclusive: 25.2%
Cc1cc(C)c(S(=O)(=O)/N=C2/C=C(SCC(=O)O)C(=O)c3ccccc32)cc1C | inconclusive: 23.9%
COc1ccc(OC)c(/C=N/c2oc(-c3ccco3)c(-c3ccco3)c2C#N)c1 | inconclusive: 25.4%
CCCCCCC(=O)N(O)C1CC(=O)N(c2ccc(F)cc2)C1=O (stereo unspecified) | inconclusive: 27.4%
CN(C)c1ccc(NC(=O)c2sc(SCC(=O)Nc3nccs3)nc2N)cc1 | active: 25.2%
O=C(N/N=C/c1ccccc1O)C1(O)c2ccccc2-c2ccccc21 | inconclusive: 27.3%
COc1ccc(N2CCN(CC(=O)N3CCC(C)CC3)CC2)cc1 | active: 24.4%
COC(=O)CSC1=C(C#N)C(c2ccc(F)cc2)CC(=O)N1 (stereo unspecified) | inactive: -0.52%
N=C1/C(=C\c2ccc(-c3cc(Cl)cc(Cl)c3)o2)C(=O)N=C2SC=C(c3ccccc3)N12 | inactive: -3.79%
Cc1sc2nc3c(C(=O)N4CCCC4)cc(C(=O)c4ccccc4O)cn3c(=O)c2c1C | inactive: 17.2%
CC1CN(C(=O)CCc2ccccc2)C(C)CN1C(=O)CCc1ccccc1 (stereo unspecified) | inconclusive: 26.6%

SMILES | inhibition
O=C(c1cccc([N+](=O)[O-])c1)N1CCN(Cc2ccc3c(c2)OCO3)CC1 | inactive: 0.06%
COc1ccc(/C=C2\SC(=S)N(N3CCOCC3)C2=O)c(OC)c1 | inactive: 1.37%
Cc1ccc(NC(=O)CSc2nnc(-c3ccco3)c(-c3ccco3)n2)cc1 | active: 25%
Cc1nnc(SCc2nc(N)nc(Nc3ccccc3)n2)s1 | inconclusive: 25.4%
O=C(Nc1cccc(S(=O)(=O)N2CCOCC2)c1)[C@@H]1CCCN1S(=O)(=O)c1ccc(Cl)cc1 | inconclusive: 27.3%
CC(=O)c1ccc(Sc2ccccc2N)c([N+](=O)[O-])c1 | inactive: 0.73%
CC(C)n1c2ccccc2c2nnc(SCC(=O)Nc3ccccc3C(=O)O)nc21 | inconclusive: 23.3%
COc1ccc(/C=C(/C#N)C(=O)Nc2ccc(O)cc2)cc1C(=O)O | inactive: 15.9%
COCCOC(=O)/C(=C/c1ccc(OC(=O)c2ccccc2)cc1)C(C)=O | inconclusive: 23.9%
COc1cccc(N2CC(C(=O)Nc3nnc(SCc4ccccn4)s3)CC2=O)c1 (stereo unspecified) | inconclusive: 25.4%
CCOc1ccc(-n2c(=S)sc3c(=O)[nH]c(SCC(=O)NCC4CCCO4)nc32)cc1 (stereo unspecified) | inactive: 18.3%
CCN(CC)c1nc2ccccc2nc1-n1nc(C)cc1C | active: 25.1%
COC(=O)CC(N)c1ccc(Br)cc1 (stereo unspecified) | inactive: 3.11%
O=C(O)c1ccc(-c2ccco2)n1Cc1ccccc1 | inconclusive: 33.6%
Cc1ccc(CN2CCN(C3CSCCSC3)CC2CCO)cc1 (stereo unspecified) | inactive: -1.96%
Cc1ccc(NC(=O)NC2=NN(c3ccccc3)C(=O)/C2=C2/CCCN2C)cc1 | inactive: 8.56%
Cc1nn(-c2cc(N3CCCC3)ccc2[N+](=O)[O-])c(=O)c2ccccc12 | inactive: 8.6%
O=C(COC(=O)Cc1ccc(S(=O)(=O)N2CCOCC2)s1)NCCc1ccccc1 | inactive: 5.27%
